From PMC10468565
These are yes or no findings as the source states them, for the method shown. In cells and extracts the contact can be indirect. Some entries that bind do so weakly or less than the wild type.

Protein sequences, listed by entry. Tags and fused reporters are not part of them.
UniProt P62137: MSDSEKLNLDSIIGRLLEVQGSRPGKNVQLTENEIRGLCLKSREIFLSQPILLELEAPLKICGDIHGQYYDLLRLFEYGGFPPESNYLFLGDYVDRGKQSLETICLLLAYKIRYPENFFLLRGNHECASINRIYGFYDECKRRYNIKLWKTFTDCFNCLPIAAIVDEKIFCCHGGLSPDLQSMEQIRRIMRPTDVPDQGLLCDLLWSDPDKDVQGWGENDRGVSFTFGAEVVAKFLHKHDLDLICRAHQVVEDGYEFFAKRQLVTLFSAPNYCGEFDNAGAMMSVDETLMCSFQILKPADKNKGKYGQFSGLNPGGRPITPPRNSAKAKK
UniProt P62136: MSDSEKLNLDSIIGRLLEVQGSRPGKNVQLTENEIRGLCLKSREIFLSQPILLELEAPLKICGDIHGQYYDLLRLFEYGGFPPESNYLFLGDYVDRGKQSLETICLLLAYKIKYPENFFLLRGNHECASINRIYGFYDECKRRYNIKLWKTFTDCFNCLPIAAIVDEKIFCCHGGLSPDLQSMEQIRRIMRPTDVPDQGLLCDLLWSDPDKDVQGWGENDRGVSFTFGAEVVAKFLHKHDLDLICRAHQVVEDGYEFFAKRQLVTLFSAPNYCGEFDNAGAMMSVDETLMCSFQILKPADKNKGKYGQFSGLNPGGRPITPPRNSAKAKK

Assays:
[1] = target: T1, Coactivator-associated arginine methyltransferase 1 (CARM1), endogenous in MC3T3-E1 and RAW264.7 cells (mouse (endogenous in MC3T3-E1 and RAW264.7)) (UniProt Q9WVG6); experiment: co-IP; whole-cell extracts (Pierce IP lysis buffer) of MC3T3-E1 and RAW264.7 cells, antibody overnight at 4°C, protein A&G beads 4 h at 4°C, Western blot; IP of CARM1 and, in turn, IP of PPP1CA
T1 sequence: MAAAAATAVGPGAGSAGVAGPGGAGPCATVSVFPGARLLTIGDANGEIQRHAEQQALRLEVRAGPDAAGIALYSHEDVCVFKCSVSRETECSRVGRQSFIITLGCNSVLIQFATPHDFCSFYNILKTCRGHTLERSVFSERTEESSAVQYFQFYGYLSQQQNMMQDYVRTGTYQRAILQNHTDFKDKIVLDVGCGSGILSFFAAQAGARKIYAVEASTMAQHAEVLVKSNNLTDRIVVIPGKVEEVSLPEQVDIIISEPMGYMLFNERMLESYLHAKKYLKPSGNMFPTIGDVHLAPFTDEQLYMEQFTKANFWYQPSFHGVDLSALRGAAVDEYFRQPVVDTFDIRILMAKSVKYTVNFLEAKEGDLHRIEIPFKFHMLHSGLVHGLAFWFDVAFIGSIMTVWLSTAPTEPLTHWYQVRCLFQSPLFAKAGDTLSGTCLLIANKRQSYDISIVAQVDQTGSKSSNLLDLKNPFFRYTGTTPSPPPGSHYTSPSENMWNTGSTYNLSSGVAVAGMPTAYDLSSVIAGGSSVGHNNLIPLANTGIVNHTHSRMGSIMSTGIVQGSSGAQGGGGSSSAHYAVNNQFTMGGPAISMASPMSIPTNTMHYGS

[2] = target: T2, CARM1 in the HEK-293T cell line (UniProt Q86X55); experiment: co-IP; HEK-293T cell line; whole-cell extract, protein A&G beads, Western blot
T2 sequence: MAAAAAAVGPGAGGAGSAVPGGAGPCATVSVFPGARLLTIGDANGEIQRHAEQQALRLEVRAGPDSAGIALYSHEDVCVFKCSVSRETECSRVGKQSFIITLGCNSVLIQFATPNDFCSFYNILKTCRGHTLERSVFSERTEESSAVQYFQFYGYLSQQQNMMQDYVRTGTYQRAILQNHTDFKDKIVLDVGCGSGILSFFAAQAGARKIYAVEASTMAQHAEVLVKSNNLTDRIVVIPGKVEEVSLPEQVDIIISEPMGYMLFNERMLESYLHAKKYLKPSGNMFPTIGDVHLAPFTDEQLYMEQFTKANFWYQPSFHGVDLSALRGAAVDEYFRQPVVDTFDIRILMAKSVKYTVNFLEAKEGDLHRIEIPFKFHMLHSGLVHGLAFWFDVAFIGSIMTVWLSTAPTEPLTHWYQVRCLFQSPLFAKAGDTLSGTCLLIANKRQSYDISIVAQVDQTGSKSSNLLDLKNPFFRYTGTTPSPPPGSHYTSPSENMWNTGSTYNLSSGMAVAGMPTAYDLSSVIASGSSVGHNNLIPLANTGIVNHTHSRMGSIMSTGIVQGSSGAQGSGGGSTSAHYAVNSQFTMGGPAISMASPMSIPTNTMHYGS

[3] = target: PPP1CA (PP-1alpha), endogenous in MC3T3-E1 and RAW264.7 cells (mouse (endogenous in MC3T3-E1 and RAW264.7)) (UniProt P62137); experiment: co-IP; whole-cell extracts (Pierce IP lysis buffer) of MC3T3-E1 and RAW264.7 cells, antibody overnight at 4°C, protein A&G beads 4 h at 4°C, Western blot; IP of CARM1 and, in turn, IP of PPP1CA

With “PPP1CA (PP-1alpha), endogenous in MC3T3-E1 and RAW264.7 cells (from UniProt P62137 1-330)” the binding [1] was “binds”.

“PPP1CA in the HEK-293T cell line (from UniProt P62136 1-330)” was tested, and the binding [2] was “binds”.

B1: Coactivator-associated arginine methyltransferase 1 (CARM1), endogenous in MC3T3-E1 and RAW264.7 cells (protein, UniProt Q9WVG6-1 1-608)
chain: MAAAAATAVGPGAGSAGVAGPGGAGPCATVSVFPGARLLTIGDANGEIQRHAEQQALRLEVRAGPDAAGIALYSHEDVCVFKCSVSRETECSRVGRQSFIITLGCNSVLIQFATPHDFCSFYNILKTCRGHTLERSVFSERTEESSAVQYFQFYGYLSQQQNMMQDYVRTGTYQRAILQNHTDFKDKIVLDVGCGSGILSFFAAQAGARKIYAVEASTMAQHAEVLVKSNNLTDRIVVIPGKVEEVSLPEQVDIIISEPMGYMLFNERMLESYLHAKKYLKPSGNMFPTIGDVHLAPFTDEQLYMEQFTKANFWYQPSFHGVDLSALRGAAVDEYFRQPVVDTFDIRILMAKSVKYTVNFLEAKEGDLHRIEIPFKFHMLHSGLVHGLAFWFDVAFIGSIMTVWLSTAPTEPLTHWYQVRCLFQSPLFAKAGDTLSGTCLLIANKRQSYDISIVAQVDQTGSKSSNLLDLKNPFFRYTGTTPSPPPGSHYTSPSENMWNTGSTYNLSSGVAVAGMPTAYDLSSVIAGGSSVGHNNLIPLANTGIVNHTHSRMGSIMSTGIVQGSSGAQGGGGSSSAHYAVNNQFTMGGPAISMASPMSIPTNTMHYGS
In the case of B1, the binding [3] is reported as “binds”.
